Measurements as given in patent publication US7214766B2 (priority 1998, dated 2007).
The same purity stands for every peptide and may come from a single statement. No end group written: not given here.

Assay: peptide made by a vendor
Settings: whole synthesis, VYDAC reverse phase C8 column, 10–90% acetonitrile gradient over 34 minutes, 1.5 ml per minute

Final HPLC purity, greater than 95% pure:
ILKGFPGFPRRK
ILPFKFPFFPFRR
Ile Leu Pro Trp Lys Trp Pro Trp Trp Pro Trp Arg Arg
RRWPWWPWKWPLI
RRWPWWPWKWPLIGGGYDPAPPPPPP
SRRWPWWPWKWPLI
